Out of some 330,000 compounds screened, about 7,700 (2.3%) were called active. A call without a number means that no potency is given here. Inconclusive means that the source gave no clear call. Such entries were picked first, then a sample of the others. Calls come from the whole dose curve; as a rule, active = well fitted inhibition curve with a large enough effect; inconclusive = small, poorly fitted or top-dose-only effect, or effect the other way; inactive = flat fitted curve, though single readings scatter. Where the call is inconclusive, the potency comes from a doubtful curve fit.
Experiment: qHTS screen for small molecules that inhibit ELG1-dependent DNA repair in human embryonic kidney (HEK293T) cells expressing luciferase-tagged ELG1; note: nearly all actives have a fitted effect of over 55% in size
Details: HEK293T ELG1-luciferase reporter, luminescence, 16 h, DNA damage induced by 5-fluorouridine; series mostly up to 46.1 µM
Procedure, shortened: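 Reporter activity after DNA damage by 5-fluorouridine is monitored. Compound-treated cells incubate 16 hr at 37 °C, then ONE-Glo is added for 30 min before luminescence reading.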
Potency is the fitted concentration of half-maximal effect.

**Q.** With `Cc1ccc(S(=O)(=O)N2CCC(C(=O)Nc3ccccc3N3CCCC3)CC2)c(C)c1` as the compound, how does the Potency read?
**A.** inconclusive: 4.61 µM [inhibitor, partial curve, poor fit]

**Q.** Which Potency does the source give for `CCOC(=O)c1c(NC(=O)c2ccoc2C)sc(C)c1C` here?
**A.** inactive

**Q.** Which Potency does the source give for `Cc1sc(NC(=O)c2ccccc2)c(C(c2ccccn2)N2CCN(CCO)CC2)c1C` (stereo not drawn) here?
**A.** inactive

**Q.** Which Potency does the source give for `Fc1ccc(-c2ccnc3nc(N4CCOCC4)nn23)cc1` here?
**A.** inactive

**Q.** Which Potency does the source give for `CCOC(=O)Cn1c(C)c(Br)c(COC)c(C#N)c1=O` here?
**A.** inconclusive: 23.1 µM [activator, partial curve]

**Q.** Which Potency does the source give for `Cn1cnc(S(=O)(=O)NCc2ccc(Br)cc2)c1` here?
**A.** inactive

**Q.** With `COc1ccc(C(=O)C2CCCN(Cc3cn(C)nc3-c3ccccc3)C2)cc1F` (stereo not drawn) as the compound, how does the Potency read?
**A.** inactive

**Q.** With `Cc1ccc(C2=NN3C(C(=O)c4ccccc4)Oc4ccccc4C3C2)cc1` (stereo not drawn) as the compound, how does the Potency read?
**A.** inconclusive: 25.9 µM [activator, partial curve]

**Q.** For `COc1ccc(/C=N/NC(=O)c2ccccc2OCc2ccccc2)c(OC)c1`, which Potency is on record?
**A.** inconclusive: 29.1 µM [inhibitor, single point]

**Q.** With `S=c1[nH]nc(-c2cc(-c3ccccc3)n[nH]2)n1/N=C/c1c(Cl)cccc1Cl` as the compound, how does the Potency read?
**A.** inconclusive: 7.3 µM [activator, partial curve]

**Q.** For `CCCCN1C(=O)/C(=C/C=C2/CC(C)(C)CN2C)SC1=S`, which Potency is on record?
**A.** inconclusive: 16.4 µM [activator, partial curve]

**Q.** For `Cc1ccc(NC(=O)CN(c2ccccc2)S(=O)(=O)N(C)C)cc1`, which Potency is on record?
**A.** inactive

**Q.** Which Potency does the source give for `Cc1ccc(Nc2cc(C)nc3ccc(C)cc23)cc1` here?
**A.** active: 8.2 µM

**Q.** Which Potency does the source give for `Cc1n[nH]c(C)c1CCCCOc1ccc([N+](=O)[O-])cc1` here?
**A.** inactive

**Q.** For `CCOC(=O)C(NC(=O)c1cccnc1)(Nc1cccc(C)n1)C(F)(F)F` (stereo not drawn), which Potency is on record?
**A.** inactive

**Q.** Which Potency does the source give for `COc1cccc(N2CCN(c3ccc([N+](=O)[O-])cn3)CC2)c1` here?
**A.** inactive

**Q.** Which Potency does the source give for `C=CCN1CCN(C(=O)c2ccc3c(c2)OCO3)CC1` here?
**A.** inactive

**Q.** Which Potency does the source give for `CC(C)c1ccccc1OCC(=O)Nc1ccc2[nH]ncc2c1` here?
**A.** inconclusive: 29.1 µM [inhibitor, single point]

**Q.** Which Potency does the source give for `Cc1c(C(=O)NCc2cccs2)oc2ccc(Br)cc12` here?
**A.** inconclusive: 16.4 µM [activator, single point]

**Q.** With `O=C(c1ccccc1)N1CCCCC(Sc2nnc3ccccn23)C1=O` (stereo not drawn) as the compound, how does the Potency read?
**A.** inactive

**Q.** With `COc1cc(OC)cc(-c2nnc(SCc3ccc(C(=O)O)cc3)o2)c1` as the compound, how does the Potency read?
**A.** inactive

**Q.** With `O=c1[nH]c(O)c(/C=C2\C=Nc3ccc(Br)cc32)[nH]1` as the compound, how does the Potency read?
**A.** inactive

**Q.** Which Potency does the source give for `CCOC(=O)NCc1ccc(S(=O)(=O)Nc2ccccc2C)cc1` here?
**A.** inconclusive: 25.9 µM [inhibitor, partial curve, poor fit]
